Test results published in PubChem BioAssay AID504444 (National Center for Advancing Translational Sciences (NCATS), 2011).
Screen size: about 360,000 compounds; about 7,500 (2.1%) were called active. Inconclusive results, whose numbers are uncertain, are shown with a selection of clear calls. Calls come from the whole dose curve; as a rule, active = well fitted inhibition curve with a large enough effect; inconclusive = small, poorly fitted or top-dose-only effect, or effect the other way; inactive = flat fitted curve, though single readings scatter. Potencies of inconclusive entries are doubtful fits and often do not repeat.
% is set by controls: 0 for no effect and ±100 for the full control effect; potency is the fitted concentration of half-maximal effect.

Assay: Nrf2 qHTS screen for inhibitors; note: nearly all actives have a fitted effect of over 60% in size
Settings: A549 ARE-Fluc reporter, luciferase luminescence, 18-24 h; activity change, negative = inhibition: at 46 µM (top of the series)
Outline: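 Cells were seeded and rested 2 h, then exposed to compounds for 18-24 h. CellTiter-Fluor was read first as a viability measure. BugLite was added 15 min before the final luminescent read of ARE-luciferase activity in A549 cells.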
For Clc1ccc(OCc2nnc(SCc3nc4ccccc4[nH]3)n2Cc2ccco2)cc1, the Potency was active: 18.4 µM.
With Cc1nn(C(C)(C)C)c(OC(=O)C(C)(C)C)c1Sc1ccccc1 the activity change, negative = inhibition was inactive: -3.99% [at 9.27 µM].
With Cc1ccc(S(=O)(=O)N2CCC(C(=O)N[C@@H](C)C(=O)NCCc3ccccc3)CC2)cc1 the Potency was inconclusive: 6.51 µM [activator, single point].
In the case of CCOC(=O)c1ccc(NC(=O)N2CCOCC2)cc1, the Potency is reported as inconclusive: 18.4 µM [activator, partial curve, poor fit].
In the case of O=c1[nH]c(-c2ccccc2F)nc2c1sc(=S)n2Cc1ccccc1, the Potency is reported as inconclusive: 0.092 µM [falling, full curve, poor fit].
With O=C(Cc1ccc(Br)cc1)Nc1ncc([N+](=O)[O-])s1 the Potency was inconclusive: 29.1 µM [falling, single point].
With C/C(CC(=O)Nc1cccc(Cl)c1Cl)=N\NC(=O)c1ccccc1N the Potency was inconclusive: 23.1 µM [activator, single point].
With O=C(NCc1ccccc1Cl)NCc1noc2ccccc12 the Potency was inconclusive: 23.1 µM [activator, partial curve].
With CCOc1cccc(=O)c2c(C)oc(C)c12 the Potency was inconclusive: 10.3 µM [falling, partial curve, poor fit].
In the case of CCOC(=O)C1CCCN(Cc2nc(N)nc(Nc3ccc(Cl)cc3)n2)C1 (configuration not stated), the Potency is reported as active: 25.9 µM.
With Cc1cccc(-n2c(CCn3nc(C)c([N+](=O)[O-])c3C)n[nH]c2=S)c1 the “activity change, negative = inhibition” value was inactive: 2.68%.
With Cc1ccccc1NC(=O)Cn1c(=O)n(CC2CCC(C(=O)NCCc3ccccc3)CC2)c(=O)c2ccccc21 (configuration not stated) the “activity change, negative = inhibition” value was inactive: 5.11%.
For Fc1ccc(CSc2nnc(-c3ccncc3)o2)cc1, the Potency was inconclusive: 25.9 µM [falling, partial curve, poor fit].
In the case of CCOC(=O)c1cccc(NC(=O)/C(=C\c2ccccc2)NC(=O)c2ccccc2Cl)c1, the Potency is reported as inconclusive: 32.6 µM [falling, single point].
For O=C(CC1SC2=NCCN2C1=O)Nc1ccc(Cl)cc1 (configuration not stated), the Potency was inconclusive: 0.058 µM [falling, full curve, poor fit].
With COc1cc2c(cc1NC(=O)c1cccc(S(=O)(=O)N(C)C)c1)oc1ccccc12 the Potency was inconclusive: 4.61 µM [activator, partial curve].
With Nc1c(C(=O)Nc2ccccc2)nnn1Cc1ccc(F)cc1Cl the Potency was inconclusive: 3.26 µM [activator, full curve, poor fit].
For CCOc1ccccc1C(=O)Nc1nc2c(s1)CC(C)CC2 (configuration not stated), the Potency was inconclusive: 20.6 µM [activator, single point].
In the case of COc1ccc(Cl)cc1NC(=O)Cn1c(=O)n(CCC(=O)NCc2ccc3c(c2)OCO3)c(=O)c2ccccc21, the Potency is reported as inconclusive: 29.1 µM [falling, single point].
In the case of O=C(N/N=C/c1ccc(O)c(O)c1)N/N=C/c1ccc(O)c(O)c1, the Potency is reported as inconclusive: 29.1 µM [activator, single point].
In the case of CCOC(=O)c1csc(NC(=O)c2ccc(S(=O)(=O)N(CC)CC)cc2)n1, the Potency is reported as inconclusive: 2.06 µM [falling, full curve].
In the case of CCOc1[nH]n(-c2ccccc2)c(=O)c1C=NCC(=O)OC, the Potency is reported as inconclusive: 32.6 µM [falling, partial curve, poor fit].
With C/C=C/c1ccc(OCC(=O)NNC(=O)CN(C)S(=O)(=O)c2ccc(C)cc2)c(OC)c1 the “activity change, negative = inhibition” value was inactive: 2.15%.
With COc1cc(NC(=O)c2ccc(-c3cccc(F)c3)o2)ccc1NC(=O)c1ccccc1Cl the Potency was inconclusive: 4.11 µM [falling, full curve].
In the case of CC(C)Nc1ncnc2c1cnn2-c1ccc(Cl)cc1, the Potency is reported as inconclusive: 0.206 µM [activator, full curve, poor fit].
For Cc1ccc(C(=O)OCC(=O)Nc2sccc2C(N)=O)cc1NC(=O)c1ccco1, the Potency was inconclusive: 20.6 µM [falling, partial curve].
With COc1cccc(C(=O)NC23CC4CC(CC(C4)C2)C3)c1 the Potency was inconclusive: 20.6 µM [activator, partial curve, poor fit].
With O=S(=O)(c1ccc(-c2csc(-c3cccnc3)n2)cc1)N1CCCC1 the Potency was inconclusive: 7.31 µM [falling, partial curve, poor fit].
With Cc1ccc(C(=O)Oc2coc(CSc3nnc(NC(=O)C4CC4)s3)cc2=O)cc1 the Potency was active: 20.6 µM.
In the case of CCN(CC)S(=O)(=O)c1ccc(C(=O)NCCSc2c[nH]c3ccccc23)cc1, the Potency is reported as inconclusive: 13 µM [falling, partial curve, poor fit].
For CCNC(=S)N1CCN(c2nc(CC)nc3sc4c(c23)CCCC4)CC1, the Potency was inconclusive: 18.4 µM [falling, partial curve].
With O=C(CCl)NCCN1C(=O)S/C(=C\c2cccnc2)C1=O the “activity change, negative = inhibition” value was inactive: -0.158%.
For Cn1cc(C(=O)N2CCN(c3cccc(C(F)(F)F)c3)CC2)c2c3ccccc3n(C)c2c1=O, the Potency was inconclusive: 14.6 µM [falling, single point].
In the case of CC1CCCN(c2nc3ccsc3c(=O)s2)C1 (configuration not stated), the “activity change, negative = inhibition” value is reported as inactive: 2.22%.
With CC(=O)OC(C(=O)NC1CCCCC1)c1ccccc1F (configuration not stated) the “activity change, negative = inhibition” value was inactive: -2%.
For O=C(NNC(=S)Nc1ccccc1)c1ccc2ncccc2c1, the Potency was inconclusive: 7.31 µM [activator, partial curve].
For CCCCC(=O)NC(c1ccc(C(C)C)cc1)c1ccc2cccnc2c1O (configuration not stated), the Potency was inconclusive: 7.31 µM [falling, partial curve].
In the case of COc1ccc(NC(=O)C(=O)NCC(c2ccco2)N2CCc3ccccc3C2)cc1OC (configuration not stated), the Potency is reported as inconclusive: 20.6 µM [falling, single point].
With Cc1cccc(NC(=O)c2cnc3ccccn3c2=O)c1 the Potency was inconclusive: 6.51 µM [activator, single point].
With CCN(CC)S(=O)(=O)c1ccc2oc(SCc3ccc(F)cc3)nc2c1 the Potency was active: 18.4 µM.
With Cc1ccc(NC(=S)N2CCC(c3nc4ccccc4s3)CC2)cc1C the Potency was inconclusive: 32.6 µM [falling, single point].
With COC(=O)c1cnc(SCc2ccc(Cl)cc2)n1C the Potency was inconclusive: 7.31 µM [activator, partial curve, poor fit].
